Laboratory results from the supplement of paper PMC12819154, “High-throughput peptide-centric local stability assay extends protein–ligand identification to membrane proteins, tissues and bacteria” (Nature Structural & Molecular Biology, 2025).
The other results are listed elsewhere or left out. Most values lie at the level of the controls, where differences are scatter.

Amino acid sequences for entries named in this document (tags omitted). A change or cut given only in a name is not applied to a line headed by its entry.
UniProt P41216: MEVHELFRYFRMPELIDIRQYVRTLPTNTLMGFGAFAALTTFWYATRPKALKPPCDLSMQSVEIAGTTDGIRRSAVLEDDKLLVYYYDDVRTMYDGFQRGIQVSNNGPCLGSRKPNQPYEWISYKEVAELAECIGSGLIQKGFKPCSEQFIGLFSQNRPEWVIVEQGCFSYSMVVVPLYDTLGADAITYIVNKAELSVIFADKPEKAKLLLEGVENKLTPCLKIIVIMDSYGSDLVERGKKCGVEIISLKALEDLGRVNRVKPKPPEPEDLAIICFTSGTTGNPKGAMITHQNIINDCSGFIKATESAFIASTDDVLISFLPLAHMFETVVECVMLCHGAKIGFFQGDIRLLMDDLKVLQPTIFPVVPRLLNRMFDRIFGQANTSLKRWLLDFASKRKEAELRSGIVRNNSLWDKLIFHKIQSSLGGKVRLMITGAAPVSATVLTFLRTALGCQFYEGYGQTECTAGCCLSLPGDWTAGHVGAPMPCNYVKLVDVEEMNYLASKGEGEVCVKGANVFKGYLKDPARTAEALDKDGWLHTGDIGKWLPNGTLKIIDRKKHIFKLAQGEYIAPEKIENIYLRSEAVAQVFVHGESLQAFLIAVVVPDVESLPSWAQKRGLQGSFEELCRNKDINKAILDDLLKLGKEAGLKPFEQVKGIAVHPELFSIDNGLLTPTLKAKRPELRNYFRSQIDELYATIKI
UniProt P56135: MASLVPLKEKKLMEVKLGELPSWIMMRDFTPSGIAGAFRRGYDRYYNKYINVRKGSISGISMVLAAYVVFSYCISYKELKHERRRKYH
UniProt P53811: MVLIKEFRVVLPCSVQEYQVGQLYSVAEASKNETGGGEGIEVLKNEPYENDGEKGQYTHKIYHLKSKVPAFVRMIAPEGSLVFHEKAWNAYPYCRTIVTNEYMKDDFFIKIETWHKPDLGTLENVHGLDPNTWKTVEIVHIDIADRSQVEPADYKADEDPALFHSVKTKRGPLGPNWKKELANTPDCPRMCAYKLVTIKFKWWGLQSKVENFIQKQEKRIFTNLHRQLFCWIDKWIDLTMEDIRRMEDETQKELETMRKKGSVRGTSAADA
UniProt P56212: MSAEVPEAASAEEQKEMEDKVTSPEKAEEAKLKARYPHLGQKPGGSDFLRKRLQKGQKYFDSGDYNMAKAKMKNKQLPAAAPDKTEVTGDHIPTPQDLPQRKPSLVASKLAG
UniProt P35486: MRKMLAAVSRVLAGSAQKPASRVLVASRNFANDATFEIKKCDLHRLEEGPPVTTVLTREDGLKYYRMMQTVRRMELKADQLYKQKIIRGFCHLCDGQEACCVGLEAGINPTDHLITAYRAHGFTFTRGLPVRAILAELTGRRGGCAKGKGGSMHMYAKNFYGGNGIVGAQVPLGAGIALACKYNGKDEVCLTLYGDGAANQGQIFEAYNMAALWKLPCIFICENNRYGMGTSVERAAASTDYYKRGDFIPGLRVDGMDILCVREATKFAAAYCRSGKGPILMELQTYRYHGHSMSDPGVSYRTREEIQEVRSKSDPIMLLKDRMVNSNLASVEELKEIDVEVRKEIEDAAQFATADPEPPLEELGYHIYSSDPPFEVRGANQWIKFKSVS
UniProt P34022, whole entry: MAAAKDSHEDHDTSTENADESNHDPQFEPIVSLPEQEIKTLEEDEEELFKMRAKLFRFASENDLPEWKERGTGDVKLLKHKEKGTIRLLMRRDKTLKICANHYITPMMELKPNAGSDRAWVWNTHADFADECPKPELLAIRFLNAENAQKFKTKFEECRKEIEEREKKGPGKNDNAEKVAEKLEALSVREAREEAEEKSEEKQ
UniProt P35802: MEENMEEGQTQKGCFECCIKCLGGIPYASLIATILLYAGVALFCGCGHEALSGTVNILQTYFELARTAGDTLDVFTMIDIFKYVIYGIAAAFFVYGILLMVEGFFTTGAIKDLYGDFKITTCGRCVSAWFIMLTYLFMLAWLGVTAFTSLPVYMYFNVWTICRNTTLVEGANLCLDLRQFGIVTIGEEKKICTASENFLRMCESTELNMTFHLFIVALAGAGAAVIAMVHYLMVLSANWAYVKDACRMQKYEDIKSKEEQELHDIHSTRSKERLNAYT
UniProt P56382: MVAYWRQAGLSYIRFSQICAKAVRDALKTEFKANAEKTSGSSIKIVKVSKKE
UniProt P53395, whole entry: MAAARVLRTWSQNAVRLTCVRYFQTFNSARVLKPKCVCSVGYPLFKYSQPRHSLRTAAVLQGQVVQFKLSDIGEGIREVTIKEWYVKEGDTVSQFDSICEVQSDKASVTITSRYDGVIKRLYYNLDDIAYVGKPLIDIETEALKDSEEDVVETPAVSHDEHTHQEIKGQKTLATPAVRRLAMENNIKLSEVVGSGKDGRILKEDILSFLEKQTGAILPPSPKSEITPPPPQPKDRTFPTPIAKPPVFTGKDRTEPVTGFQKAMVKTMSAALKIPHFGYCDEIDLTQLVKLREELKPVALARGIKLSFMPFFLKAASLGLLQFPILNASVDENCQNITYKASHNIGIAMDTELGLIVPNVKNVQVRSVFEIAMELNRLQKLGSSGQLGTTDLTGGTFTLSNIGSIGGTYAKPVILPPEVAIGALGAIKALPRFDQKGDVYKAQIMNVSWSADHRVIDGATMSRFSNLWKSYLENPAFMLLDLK
UniProt P28798: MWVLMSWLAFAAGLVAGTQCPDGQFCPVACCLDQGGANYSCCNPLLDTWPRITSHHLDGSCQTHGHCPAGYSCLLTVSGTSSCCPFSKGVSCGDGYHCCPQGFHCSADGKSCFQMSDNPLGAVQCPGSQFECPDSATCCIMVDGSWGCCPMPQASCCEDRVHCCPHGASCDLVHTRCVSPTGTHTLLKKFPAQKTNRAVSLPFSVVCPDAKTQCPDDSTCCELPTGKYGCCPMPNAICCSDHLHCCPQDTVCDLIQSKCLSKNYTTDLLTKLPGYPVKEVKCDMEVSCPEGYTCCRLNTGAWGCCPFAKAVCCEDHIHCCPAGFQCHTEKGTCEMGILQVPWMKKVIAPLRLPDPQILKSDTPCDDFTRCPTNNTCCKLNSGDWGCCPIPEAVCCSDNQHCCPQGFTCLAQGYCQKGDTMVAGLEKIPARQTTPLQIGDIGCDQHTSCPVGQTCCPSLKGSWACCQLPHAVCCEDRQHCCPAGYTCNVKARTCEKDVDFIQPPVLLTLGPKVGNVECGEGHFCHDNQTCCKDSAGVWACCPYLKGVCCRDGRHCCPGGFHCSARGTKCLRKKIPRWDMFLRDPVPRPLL
UniProt P43006, whole entry: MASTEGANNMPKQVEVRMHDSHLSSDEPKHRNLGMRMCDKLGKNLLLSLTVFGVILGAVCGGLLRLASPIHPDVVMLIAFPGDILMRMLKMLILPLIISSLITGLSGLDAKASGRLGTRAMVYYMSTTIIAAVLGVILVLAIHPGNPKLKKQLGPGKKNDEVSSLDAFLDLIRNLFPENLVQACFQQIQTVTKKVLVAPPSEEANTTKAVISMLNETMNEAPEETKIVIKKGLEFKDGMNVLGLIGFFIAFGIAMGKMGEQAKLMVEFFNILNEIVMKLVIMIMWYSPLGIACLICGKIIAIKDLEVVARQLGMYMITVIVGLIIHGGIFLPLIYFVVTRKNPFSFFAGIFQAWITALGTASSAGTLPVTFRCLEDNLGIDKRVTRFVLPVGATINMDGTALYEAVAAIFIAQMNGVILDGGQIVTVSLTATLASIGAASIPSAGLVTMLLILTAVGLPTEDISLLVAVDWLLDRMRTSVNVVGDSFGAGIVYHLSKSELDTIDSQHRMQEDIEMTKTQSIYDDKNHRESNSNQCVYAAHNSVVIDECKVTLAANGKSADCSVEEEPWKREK
UniProt P43274, whole entry: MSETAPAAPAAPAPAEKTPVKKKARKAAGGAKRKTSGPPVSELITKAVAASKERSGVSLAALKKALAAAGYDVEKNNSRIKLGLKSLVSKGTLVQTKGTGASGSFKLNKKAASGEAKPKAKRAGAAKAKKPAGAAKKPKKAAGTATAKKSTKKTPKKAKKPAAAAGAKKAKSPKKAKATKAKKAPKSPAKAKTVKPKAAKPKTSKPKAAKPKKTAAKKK
UniProt P43120: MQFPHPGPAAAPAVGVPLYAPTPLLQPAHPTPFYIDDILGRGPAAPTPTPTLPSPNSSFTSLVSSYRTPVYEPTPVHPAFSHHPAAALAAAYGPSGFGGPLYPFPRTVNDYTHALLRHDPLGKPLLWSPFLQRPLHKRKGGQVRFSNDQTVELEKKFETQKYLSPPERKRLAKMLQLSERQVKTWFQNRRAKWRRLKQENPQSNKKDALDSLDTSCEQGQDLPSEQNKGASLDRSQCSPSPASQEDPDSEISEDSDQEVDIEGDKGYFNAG
UniProt P48036: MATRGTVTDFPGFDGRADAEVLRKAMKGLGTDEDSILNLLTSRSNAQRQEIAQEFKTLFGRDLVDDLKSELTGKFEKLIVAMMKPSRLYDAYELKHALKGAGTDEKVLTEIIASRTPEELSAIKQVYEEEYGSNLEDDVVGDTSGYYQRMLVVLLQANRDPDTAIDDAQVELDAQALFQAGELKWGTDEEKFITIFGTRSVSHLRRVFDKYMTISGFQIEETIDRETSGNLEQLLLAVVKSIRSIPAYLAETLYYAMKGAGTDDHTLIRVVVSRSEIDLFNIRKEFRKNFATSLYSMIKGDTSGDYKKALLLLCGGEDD
UniProt P35505: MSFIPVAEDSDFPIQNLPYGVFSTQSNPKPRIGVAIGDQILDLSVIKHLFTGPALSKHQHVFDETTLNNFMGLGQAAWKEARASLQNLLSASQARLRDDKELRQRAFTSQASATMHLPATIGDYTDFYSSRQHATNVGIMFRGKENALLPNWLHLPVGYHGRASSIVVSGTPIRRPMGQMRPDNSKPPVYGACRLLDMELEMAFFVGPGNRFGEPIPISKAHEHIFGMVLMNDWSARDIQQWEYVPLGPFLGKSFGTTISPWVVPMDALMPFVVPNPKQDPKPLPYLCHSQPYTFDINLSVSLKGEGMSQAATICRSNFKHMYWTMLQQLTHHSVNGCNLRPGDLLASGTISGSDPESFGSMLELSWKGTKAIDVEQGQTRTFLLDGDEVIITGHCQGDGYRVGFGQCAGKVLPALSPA
UniProt P50396: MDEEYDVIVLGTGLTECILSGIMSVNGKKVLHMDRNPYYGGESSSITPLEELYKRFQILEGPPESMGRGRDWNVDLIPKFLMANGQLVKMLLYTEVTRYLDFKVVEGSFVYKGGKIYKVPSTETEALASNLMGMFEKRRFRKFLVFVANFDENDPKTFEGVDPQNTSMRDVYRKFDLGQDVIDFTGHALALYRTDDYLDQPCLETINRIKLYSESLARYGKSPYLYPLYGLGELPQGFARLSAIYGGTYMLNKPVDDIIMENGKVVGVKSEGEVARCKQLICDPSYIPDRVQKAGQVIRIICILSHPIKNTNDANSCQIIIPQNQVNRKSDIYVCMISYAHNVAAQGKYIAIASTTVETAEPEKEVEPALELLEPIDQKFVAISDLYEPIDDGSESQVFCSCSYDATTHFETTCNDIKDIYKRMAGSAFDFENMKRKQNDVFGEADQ
UniProt P52633: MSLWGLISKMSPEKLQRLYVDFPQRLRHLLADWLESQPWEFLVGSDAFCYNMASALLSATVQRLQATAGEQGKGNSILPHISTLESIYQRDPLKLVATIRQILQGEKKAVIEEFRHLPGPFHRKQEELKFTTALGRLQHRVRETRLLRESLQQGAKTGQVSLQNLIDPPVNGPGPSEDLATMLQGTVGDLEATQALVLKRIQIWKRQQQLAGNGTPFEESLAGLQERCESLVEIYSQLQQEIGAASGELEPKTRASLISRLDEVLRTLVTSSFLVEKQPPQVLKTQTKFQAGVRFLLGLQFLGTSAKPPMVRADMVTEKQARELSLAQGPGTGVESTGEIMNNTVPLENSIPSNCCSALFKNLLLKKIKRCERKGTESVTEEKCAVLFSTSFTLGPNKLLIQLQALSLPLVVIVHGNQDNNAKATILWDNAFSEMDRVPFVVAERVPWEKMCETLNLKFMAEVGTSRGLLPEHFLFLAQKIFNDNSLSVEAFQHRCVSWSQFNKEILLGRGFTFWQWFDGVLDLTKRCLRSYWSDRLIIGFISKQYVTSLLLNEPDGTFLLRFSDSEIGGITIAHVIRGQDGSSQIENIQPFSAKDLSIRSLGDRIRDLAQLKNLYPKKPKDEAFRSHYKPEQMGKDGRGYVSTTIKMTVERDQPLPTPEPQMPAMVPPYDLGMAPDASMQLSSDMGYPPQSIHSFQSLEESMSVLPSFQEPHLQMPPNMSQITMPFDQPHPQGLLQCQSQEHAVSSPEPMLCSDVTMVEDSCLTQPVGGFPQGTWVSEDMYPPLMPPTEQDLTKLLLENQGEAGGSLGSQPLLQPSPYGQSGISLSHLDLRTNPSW
UniProt P41317: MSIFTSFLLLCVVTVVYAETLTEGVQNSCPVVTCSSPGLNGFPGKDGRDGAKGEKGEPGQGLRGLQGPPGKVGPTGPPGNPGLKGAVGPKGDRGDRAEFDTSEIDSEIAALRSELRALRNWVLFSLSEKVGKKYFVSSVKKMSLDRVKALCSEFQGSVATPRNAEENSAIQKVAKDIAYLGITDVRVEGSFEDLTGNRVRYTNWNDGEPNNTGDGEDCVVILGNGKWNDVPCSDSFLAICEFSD

compound: CN[C@@H]1C[C@H]2O[C@@](C)([C@@H]1OC)n1c3ccccc3c3c4c(c5c6ccccc6n2c5c31)C(=O)NC4 [staurosporine]; test: log2 fold change of pooled soluble protein (PISA), ligand vs vehicle (log2 ratio); higher = more thermally stabilized; details: ligand concentration: 20 uM; assay format: PISA pool 52.9/55.5/58.6 C

| Target | log2 fold change of pooled soluble protein |
| --- | --- |
| UniProt P41216 | -0.0305 |
| UniProt P40124 | -0.0269 |
| UniProt P51863 | -0.0251 |
| UniProt P52480 | 0.1 |
| UniProt P56135 | 0.184 |
| UniProt P53811 | 0.0644 |
| UniProt P50429 | 0.042 |
| UniProt P45376 | -0.134 |
| UniProt P56212 | 0.0902 |
| UniProt P35486 | -0.0863 |
| UniProt P34022 | 0.121 |
| UniProt P35802 | 0.0948 |
| UniProt P41233 | 0.162 |
| UniProt P33267 | -0.00123 |
| UniProt P35441 | -0.194 |
| UniProt P54071 | 0.0262 |
| UniProt P56389 | 0.195 |
| UniProt P56382 | -0.0201 |
| UniProt P56395 | 0.101 |

Three neighbouring entries from above:

| Target | log2 fold change of pooled soluble protein |
| --- | --- |
| UniProt P45376 | -0.134 |
| UniProt P56212 | 0.0902 |
| UniProt P35486 | -0.0863 |

(list continues)

| Target | log2 fold change of pooled soluble protein |
| --- | --- |
| UniProt P47754 | -0.0162 |
| UniProt P53395 | -0.0877 |
| UniProt P28798 | 0.0443 |
| UniProt P43006 | 0.0408 |
| UniProt P43274 | -0.0577 |
| UniProt P35601 | 0.208 |
| UniProt P43120 | -0.11 |
| UniProt P48036 | -0.0224 |
| UniProt P49429 | 0.0717 |
| UniProt P35505 | -0.054 |
| UniProt P54726 | 0.161 |
| UniProt P50396 | 0.228 |
| UniProt P49722 | -0.196 |
| UniProt P52633 | 0.0554 |
| UniProt P32261 | 0.101 |
| UniProt P29788 | -0.064 |
| UniProt P41317 | -0.142 |
| UniProt P29391 | -0.725 |
